Reference: US20240034722A1, “PRETARGETING IMAGING AGENTS” (Eli Lilly and Company, priority 2020, published 2024)
At least one structure is not confirmed: it was looked up by name or label, or the drawing left a doubt.

Experiment: Stability of the tetrazine moiety in ascorbate formulation
Assay type: physicochemical

O=C(NCc1ccc(-c2nncnn2)cc1)c1cccc([18F])n1 [Example 4, [^18F]N-(4-(1,2,4,5-tetrazin-3-yl)benzyl)-6-fluoropicolinamide]
Reduction of the tetrazine moiety by ascorbate formulation: readily reduced
